In PubChem BioAssay AID493014 (National Center for Advancing Translational Sciences (NCATS), 2011):
This is one part of the list. The main result of the screen is listed elsewhere. These columns were measured beside it and carry no call. Compounds called inactive in the main read-out are mostly missing here. Words in brackets tell the shape of the fitted curve; partial curves, single points and poor fits give uncertain potencies.

Experiment: qHTS Assay to Find Inhibitors of Chronic Active B-Cell Receptor Signaling
Conditions: ABC-DLBCL IkBa-CBG/CBR reporter, luminescence ratio (green luciferase fused to IkBa over red control in TMD8 lymphoma cells), 4 h
Summary of the method: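 Doxycycline induced both beetle luciferases in TMD8 lymphoma cells; IKK-driven degradation limits the IkappaBalpha-fused green signal, while red luminescence normalises for cell number and nonspecific effects. Compounds tested up to 46 uM, 4 hrs.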

[1] = measured here: CBR red luminescence, cell number

SMILES | AC50 [1] | AC50 (measured here: IkBa-CBG green luminescence)
O=C(c1cc2ccccc2o1)N1CCN(c2ccccc2Cl)CC1 | 20.6 µM [rising, single point] | –
CN1CCN(CCCCOc2ccccc2-c2ccccc2)CC1 | 12.6 µM [falling, partial curve, poor fit] | –
COc1ccc(Nc2nc(-c3sc(C)nc3C)cs2)c(OC)c1 | 31.6 µM [falling, single point] | –
CC1=NN(c2ccc(C(=O)O)cc2)C(=O)CC1 | 2.51 µM [falling, full curve] | –
O=C(Nc1ccccc1)C1=C[C@@H](c2ccc(C(F)(F)F)cc2)C[C@@H](OCc2ccc(CO)cc2)O1 | 3.16 µM [rising, partial curve, poor fit] | –
C=CCC[C@@H](Cc1ccc(F)cc1)C(=O)OCCNC(=O)[C@@H](CC=C)CC(=O)N(CCO)Cc1ccccc1 | 18.4 µM [falling, single point] | –
COc1cccc2sc(NNC(=O)C3=COCCO3)nc12 | 20 µM [falling, single point] | –
CCC(C(=O)OCC(=O)NC(=O)c1ccccc1)c1ccccc1 (stereo not given) | 3.26 µM [rising, full curve, poor fit] | –
O=C(O)c1cc2c(s1)-c1ccccc1CC2 | 4.11 µM [falling, full curve] | –
COCCCNC(=O)CC1C[C@H](C(=O)N2CCOCC2)[C@@]2(CCC3CCCC3)c3[nH]c4ccc(OC)cc4c3CCN2C1=O (stereo not given in full) | 23.1 µM [rising, partial curve] | –
Clc1cccc(Cl)c1/C=N\Nc1nccs1 | 35.5 µM [falling, single point] | –
COc1ccc(Cl)cc1NC(=O)CN(C)C(=O)Cc1ccc2c(c1)CCC2 | 6.31 µM [falling, partial curve, poor fit] | –
O=[N+]([O-])c1ccc(O)c(C2=NNC(c3ccccc3F)C2)c1 (stereo not given) | 12.6 µM [falling, single point] | –
C/C=C1\C(OC2OC(CO)C(O)C(O)C2O)OC=C(C(=O)OC)C1CC(=O)OCC1C(C)C(OC(=O)CC2C(C(=O)OC)=COC(OC3OC(CO)C(O)C(O)C3O)/C2=C\C)CC1C(CO)CO (stereo not given) | 25.1 µM [rising, single point] | –
CC1CN(C(=O)c2cccc(S(=O)(=O)N3CCOCC3)c2)CC(C)O1 (stereo not given) | 20 µM [rising, partial curve, poor fit] | –
O=C(CN1CCN(S(=O)(=O)c2ccccc2)CC1)Nc1ccccc1Cl | 3.16 µM [rising, partial curve, poor fit] | –
Cc1nc2ccccc2n1CCC(=O)O | 2.91 µM [falling, single point] | –
CCOC(=O)c1c(C)[nH]c(C(=O)Nc2ccc3c(c2)OCO3)c1C | 0.891 µM [falling, full curve, poor fit] | –
O=C1CCCN1CCCNC(=S)Nc1ccc(F)c(Cl)c1 | 28.2 µM [falling, partial curve, poor fit] | –
Brc1ccc(NC2=Nc3ccccc3CC2)cc1 | 0.316 µM [rising, full curve, poor fit] | –
COc1nnc(-c2ccc(N3CCOCC3)c(NC(C)=O)c2)c2ccccc12 | 32.6 µM [falling, single point] | –
Cc1ccc(CSCC(=O)N/N=C/c2sccc2C)cc1 | 7.31 µM [falling, single point] | –

3 of the compounds above, with each value named:
CN1CCN(CCCCOc2ccccc2-c2ccccc2)CC1
  AC50 [1]: 12.6 µM [falling, partial curve, poor fit]
COc1ccc(Nc2nc(-c3sc(C)nc3C)cs2)c(OC)c1
  AC50 [1]: 31.6 µM [falling, single point]
CC1=NN(c2ccc(C(=O)O)cc2)C(=O)CC1
  AC50 [1]: 2.51 µM [falling, full curve]

Going on with the list:

SMILES | AC50 [1] | AC50 (measured here: IkBa-CBG green luminescence)
Cc1ccc2cc(CCNC(=O)c3ccc4c(c3)OCO4)c(=O)[nH]c2c1C | 3.26 µM [rising, full curve] | –
Clc1ccc(OCCCCN2CCc3ccccc3C2)cc1 | 14.1 µM [rising, single point] | –
Cc1ccc(C(=O)Nc2cccnc2)cc1S(=O)(=O)N1CCCCC1 | 35.5 µM [falling, single point] | –
CCc1ccc(N2CC(C(=O)OCC(=O)Nc3ccc(C#N)cc3)CC2=O)cc1 (stereo not given) | 23.1 µM [rising, single point] | –
CCN(CC)CCCn1c2c(c(SCC(=O)Nc3cccc4ccccc34)nc1=O)CCC2 | 16.4 µM [falling, partial curve] | –
CCN(CC)S(=O)(=O)c1ccc(Cl)c(NC(=O)COC(=O)c2c(C)noc2C)c1 | 14.6 µM [falling, partial curve] | –
CCCNC(=S)NCc1ccc(Cl)cc1 | 25.9 µM [rising, partial curve, poor fit] | –
COc1cc([N+](=O)[O-])ccc1-c1ccc(/C=N/NC(=O)c2ccccc2O)o1 | 4.47 µM [falling, partial curve, poor fit] | –
Cc1ccc(S(=O)(=O)CCC(=O)OCC(=O)N2CCc3ccccc32)cc1 | 6.31 µM [falling, partial curve, poor fit] | –
CCOC(=O)N/N=C\c1ccc(OC(=O)c2ccco2)cc1 | 35.5 µM [falling, single point] | –
CCn1c(=O)cc(OCC(=O)Nc2nc(C)cs2)c2ccccc21 | 1.64 µM [falling, partial curve, poor fit] | –
CCN(CC)CCCNC(=S)Nc1ccc(Br)cc1 | 3.98 µM [rising, partial curve, poor fit] | –
O=[N+]([O-])c1ccc(OCc2cn([C@@H](CO)c3ccccc3)nn2)c(Br)c1 | 0.794 µM [rising, full curve] | –
Cc1ccc(/C=C/C(=O)OCC(=O)Nc2cccnc2Cl)o1 | 29.1 µM [rising, single point] | –
COc1ccccc1C(=O)NC(C)C(c1cccs1)N1CCOCC1 (stereo not given) | 14.6 µM [rising, partial curve, poor fit] | –
COC(=O)c1c(NC(=O)CSc2nc(-c3ccco3)cc(C(F)(F)F)n2)sc2c1CCCC2 | 0.259 µM [rising, full curve, poor fit] | –
Cc1ccc(NC(=O)C(=O)NNC(=O)c2cccs2)cc1 | 10 µM [falling, partial curve] | –
Cc1ccc2cc(C)c(N3CCN(c4ccccn4)CC3)nc2c1 | 0.116 µM [rising, full curve, poor fit] | –
O=C(NCc1csc(-c2ccccc2)n1)c1ccco1 | 28.2 µM [falling, single point] | –
Cc1ccc(S(=O)(=O)Nc2ccc(N(C)S(=O)(=O)c3ccc(C)cc3)cc2)cc1 | 22.4 µM [rising, partial curve, poor fit] | –
O=C(O)c1ccc(/C=C/C(=O)c2ccc3c(c2)OCCCO3)cc1 | 10 µM [falling, partial curve] | –
CC1CCc2c(nc3ncnn3c2N2CC(C)OC(C)C2)C1 (stereo not given) | 11.2 µM [falling, partial curve] | –

SMILES | AC50 [1] | AC50 (measured here: IkBa-CBG green luminescence)
COC(=O)c1ccc(C(=O)OC)c(NC(=O)COC(=O)C2CCCCC2)c1 | 6.51 µM [falling, single point] | –
Cc1cccc(/C=N\NC(=O)c2sccc2-n2cccc2)c1 | 1.58 µM [rising, partial curve] | –
O=C(NC(=S)Nc1ccc(Cl)c(C(=O)O)c1)c1ccco1 | 1.41 µM [falling, full curve] | –
CSc1ccccc1C(=O)Nc1ncc(C)s1 | 29.1 µM [falling, single point] | –
CC(=O)c1ccc2noc(-c3cccc(C)c3)c2c1 | 11.2 µM [falling, partial curve, poor fit] | –
CN1CCN(c2ccc(Cl)cc2NC(=O)/C=C/c2ccc(F)cc2)CC1 | 35.5 µM [falling, single point] | –
Cc1noc(C)c1S(=O)(=O)N(C)C[C@H]1Oc2c(NC(=O)Nc3ccc4c(c3)OCO4)cccc2C(=O)N([C@H](C)CO)C[C@@H]1C | 2.31 µM [rising, full curve, poor fit] | –
CN1CCN(c2nc3nonc3nc2N2CCN(C)CC2)CC1 | 20 µM [falling, single point] | –
Cc1ccc(-c2nc3ccccc3[nH]2)s1 | 29.1 µM [falling, single point] | –
CCCCSc1nnc(CNC(=O)C23CC4CC(CC(C4)C2)C3)n1Cc1ccccc1 | 13 µM [falling, single point] | 20.6 µM [rising, partial curve, poor fit]
Cc1ccc(C)c(Cn2nnc3c(=O)[nH]c(C4CCN(S(=O)(=O)c5ccc(S(=O)(=O)NC6CC6)cc5)CC4)nc32)c1 | 7.08 µM [falling, full curve] | –
O=C(O)[C@@H]1CCCN1C(=O)CCc1c[nH]c2ccccc12 | 20 µM [rising, single point] | –
CCCn1ncc(CN2CCC(C(=O)Nc3cccc(-c4cccc(F)c4)c3)CC2)c1C | 35.5 µM [falling, single point] | –
Cc1ccccc1N(CC(=O)NCc1ccccc1)C(=O)CCC(=O)Nc1nccs1 | 35.5 µM [falling, partial curve, poor fit] | –
Cc1cccc(N2C(=O)C(Oc3ccc(Cl)cc3Cl)C2C=O)c1C (stereo not given) | 29.1 µM [rising, single point] | –
CCc1c(C)nc(SC/C=C/c2ccccc2)[nH]c1=O | 6.31 µM [rising, partial curve] | –
NNC(=O)CS(=O)(=O)CS(=O)(=O)CC(=O)NN | 35.5 µM [rising, single point] | –
Cn1c2ccccc2c2ncn(Cc3ccco3)c(=O)c21 | 22.4 µM [falling, single point] | –
CC1(C(=O)Nc2cccc(C(F)(F)F)c2)CO1 (stereo not given) | 35.5 µM [falling, single point] | –
COc1ccc2nc(NC(=O)Cc3ccc(OC)c(S(=O)(=O)N4CCOCC4)c3)sc2c1 | 18.4 µM [falling, partial curve, poor fit] | –
